In article PMC9303297, “Characterization of an autonomous pathway complex that promotes flowering in Arabidopsis” (Nucleic Acids Research, 2022):
Results are given in words; binding and its absence hold for the method and conditions named. Binding seen in cells or lysates may run through a third protein. A yes stands for co-enrichment or nearness to the bait. Other partners may have been found. Sequences can lack the tags named with a protein.

Experiments:
Assay in all cases: affinity purification with mass spectrometry; 3×Flag-tagged bait from inflorescence of transgenic Arabidopsis (WT, sdg26 and fld backgrounds) bound to ANTI-FLAG M2 agarose at 4°C, lysis buffer 50 mM Tris-HCl pH 7.6, 150 mM NaCl, 0.1% NP-40; eluted with 3×Flag peptides
[1] = molecular target: T1, EFL2 (ELF4-like protein), EFL2-3×Flag in transgenic Arabidopsis (Arabidopsis thaliana) (UniProt Q94BS8)
T1 sequence: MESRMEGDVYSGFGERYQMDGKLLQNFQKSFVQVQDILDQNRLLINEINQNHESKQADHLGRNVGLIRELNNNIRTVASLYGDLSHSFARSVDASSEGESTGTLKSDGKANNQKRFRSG

[2] = molecular target: T2, EFL4 (ELF4-like protein), EFL4-3×Flag in transgenic Arabidopsis (Arabidopsis thaliana) (UniProt Q570U6)
T2 sequence: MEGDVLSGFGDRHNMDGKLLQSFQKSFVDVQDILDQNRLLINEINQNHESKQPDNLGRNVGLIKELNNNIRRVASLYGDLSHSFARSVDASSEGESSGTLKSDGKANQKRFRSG

[3] = molecular target: T3, FLD (FLOWERING LOCUS D), FLD-3×Flag in transgenic Arabidopsis (Arabidopsis thaliana) (UniProt Q9CAE3)
T3 sequence: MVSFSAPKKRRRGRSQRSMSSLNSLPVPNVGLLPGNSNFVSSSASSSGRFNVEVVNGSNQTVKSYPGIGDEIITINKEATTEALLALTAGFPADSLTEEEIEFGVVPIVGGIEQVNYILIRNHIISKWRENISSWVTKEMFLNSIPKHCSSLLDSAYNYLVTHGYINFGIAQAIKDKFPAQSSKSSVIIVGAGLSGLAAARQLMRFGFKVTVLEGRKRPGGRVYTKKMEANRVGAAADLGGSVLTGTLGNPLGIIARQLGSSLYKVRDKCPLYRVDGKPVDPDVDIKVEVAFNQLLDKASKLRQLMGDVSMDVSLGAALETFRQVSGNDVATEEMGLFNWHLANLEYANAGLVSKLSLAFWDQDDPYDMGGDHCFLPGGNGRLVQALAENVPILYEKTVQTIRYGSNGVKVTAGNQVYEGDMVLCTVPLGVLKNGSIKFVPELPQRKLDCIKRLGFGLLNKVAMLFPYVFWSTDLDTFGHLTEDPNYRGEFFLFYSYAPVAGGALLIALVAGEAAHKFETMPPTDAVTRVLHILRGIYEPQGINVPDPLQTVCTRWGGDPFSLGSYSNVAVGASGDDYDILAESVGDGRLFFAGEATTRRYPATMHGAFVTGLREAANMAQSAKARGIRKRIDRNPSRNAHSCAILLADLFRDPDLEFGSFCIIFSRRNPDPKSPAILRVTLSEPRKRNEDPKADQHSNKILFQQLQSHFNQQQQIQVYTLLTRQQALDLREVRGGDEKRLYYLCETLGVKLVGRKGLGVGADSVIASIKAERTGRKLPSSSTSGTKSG

[4] = molecular target: T4, SDG26, SDG26-3×Flag in transgenic Arabidopsis (Arabidopsis thaliana) (UniProt Q84WW6)
T4 sequence: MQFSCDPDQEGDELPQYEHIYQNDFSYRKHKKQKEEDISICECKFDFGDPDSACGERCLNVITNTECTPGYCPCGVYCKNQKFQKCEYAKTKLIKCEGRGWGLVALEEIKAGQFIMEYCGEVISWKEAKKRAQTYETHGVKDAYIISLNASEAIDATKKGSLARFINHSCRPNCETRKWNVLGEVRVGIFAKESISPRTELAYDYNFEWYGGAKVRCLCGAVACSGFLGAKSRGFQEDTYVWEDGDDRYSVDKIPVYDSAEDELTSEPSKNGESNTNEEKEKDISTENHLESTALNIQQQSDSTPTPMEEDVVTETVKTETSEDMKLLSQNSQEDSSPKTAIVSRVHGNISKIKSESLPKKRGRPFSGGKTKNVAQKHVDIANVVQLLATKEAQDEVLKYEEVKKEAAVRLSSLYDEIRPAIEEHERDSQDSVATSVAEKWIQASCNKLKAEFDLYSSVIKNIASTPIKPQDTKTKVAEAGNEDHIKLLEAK

[5] = molecular target: T5, LD (LU…), LD-3×Flag in transgenic Arabidopsis (Arabidopsis thaliana) (UniProt Q38796)
T5 sequence: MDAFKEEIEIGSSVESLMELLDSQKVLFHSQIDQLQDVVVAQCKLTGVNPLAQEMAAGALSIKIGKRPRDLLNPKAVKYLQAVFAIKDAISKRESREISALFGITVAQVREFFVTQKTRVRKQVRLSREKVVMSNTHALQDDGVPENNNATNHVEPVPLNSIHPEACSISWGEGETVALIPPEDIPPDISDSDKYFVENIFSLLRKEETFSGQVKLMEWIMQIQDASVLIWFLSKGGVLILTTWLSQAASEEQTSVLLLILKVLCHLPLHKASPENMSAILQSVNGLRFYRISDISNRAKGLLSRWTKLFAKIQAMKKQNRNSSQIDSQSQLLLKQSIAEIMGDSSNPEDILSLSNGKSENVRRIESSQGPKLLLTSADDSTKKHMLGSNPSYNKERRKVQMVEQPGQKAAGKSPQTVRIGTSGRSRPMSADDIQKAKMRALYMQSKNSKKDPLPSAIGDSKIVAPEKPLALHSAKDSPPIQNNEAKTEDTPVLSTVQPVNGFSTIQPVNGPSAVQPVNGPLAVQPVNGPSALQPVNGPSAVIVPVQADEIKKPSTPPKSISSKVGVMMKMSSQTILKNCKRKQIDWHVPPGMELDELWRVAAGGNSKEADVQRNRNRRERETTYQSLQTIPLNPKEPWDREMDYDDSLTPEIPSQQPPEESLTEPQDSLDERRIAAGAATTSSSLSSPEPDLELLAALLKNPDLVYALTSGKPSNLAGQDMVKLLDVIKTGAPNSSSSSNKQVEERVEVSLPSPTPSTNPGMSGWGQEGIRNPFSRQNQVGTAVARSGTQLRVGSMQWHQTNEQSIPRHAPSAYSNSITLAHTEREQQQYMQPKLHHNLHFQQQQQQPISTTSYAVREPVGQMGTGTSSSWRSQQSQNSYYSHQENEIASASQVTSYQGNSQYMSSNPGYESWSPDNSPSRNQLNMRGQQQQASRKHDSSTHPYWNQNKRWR

Measured: binding

B1: HDA19 (histone deacetylase complex component) (protein, UniProt O22446 1-501)
chain: MDTGGNSLASGPDGVKRKVCYFYDPEVGNYYYGQGHPMKPHRIRMTHALLAHYGLLQHMQVLKPFPARDRDLCRFHADDYVSFLRSITPETQQDQIRQLKRFNVGEDCPVFDGLYSFCQTYAGGSVGGSVKLNHGLCDIAINWAGGLHHAKKCEASGFCYVNDIVLAILELLKQHERVLYVDIDIHHGDGVEEAFYATDRVMTVSFHKFGDYFPGTGHIQDIGYGSGKYYSLNVPLDDGIDDESYHLLFKPIMGKVMEIFRPGAVVLQCGADSLSGDRLGCFNLSIKGHAECVKFMRSFNVPLLLLGGGGYTIRNVARCWCYETGVALGVEVEDKMPEHEYYEYFGPDYTLHVAPSNMENKNSRQMLEEIRNDLLHNLSKLQHAPSVPFQERPPDTETPEVDEDQEDGDKRWDPDSDMDVDDDRKPIPSRVKREAVEPDTKDKDGLKGIMERGKGCEVEVDESGSTKVTGVNPVGVEEASVKMEEEGTNKGGAEQAFPPKT
binds: [1] | [2]

B2: LD (LU…), LD-3×Flag in transgenic Arabidopsis (protein, UniProt Q38796 1-953)
chain: T5 sequence
not listed: [5]
binds: all other assays above

B3: EFL2 (ELF4-like protein), EFL2-3×Flag in transgenic Arabidopsis (protein, UniProt Q94BS8 1-119)
chain: T1 sequence
binds: [3] | [5] | [4]

B4: EFL4 (ELF4-like protein), EFL4-3×Flag in transgenic Arabidopsis (protein, UniProt Q570U6 1-114)
chain: T2 sequence
binds: [3] | [5] | [4]

B5: SDG26, SDG26-3×Flag in transgenic Arabidopsis (protein, UniProt Q84WW6 1-492)
chain: T4 sequence
not listed: [4]
binds: all other assays above
